Drawing on paper PMC11499603, this text covers binding for two molecules.

These are yes or no findings as the source states them, for the method shown. In cells and extracts the contact can be indirect. These calls come from enrichment with a bait or labelling near it, and not all partners need be listed.

The target of the assay is α-tubulin (human (endogenous in H520)). Nature of the assay: affinity purification with mass spectrometry; α-tubulin immunoprecipitated from H520^VASH2, H520^VASH2-mut and H520^NC cells, LC-MS/MS of the precipitate.

B1: kinesin family member 3C (protein, UniProt O14782 1-793)
chain: MASKTKASEALKVVARCRPLSRKEEAAGHEQILTMDVKLGQVTLRNPRAAPGELPKTFTFDAVYDASSKQADLYDETVRPLIDSVLQGFNGTVFAYGQTGTGKTYTMQGTWVEPELRGVIPNAFEHIFTHISRSQNQQYLVRASYLEIYQEEIRDLLSKEPGKRLELKENPETGVYIKDLSSFVTKNVKEIEHVMNLGNQTRAVGSTHMNEVSSRSHAIFIITVECSERGSDGQDHIRVGKLNLVDLAGSERQNKAGPNTAGGAATPSSGGGGGGGGSGGGAGGERPKEASKINLSLSALGNVIAALAGNRSTHIPYRDSKLTRLLQDSLGGNAKTIMVATLGPASHSYDESLSTLRFANRAKNIKNKPRVNEDPKDTLLREFQEEIARLKAQLEKRGMLGKRPRRKSSRRKKAVSAPPGYPEGPVIEAWVAEEEDDNNNNHRPPQPILESALEKNMENYLQEQKERLEEEKAAIQDDRSLVSEEKQKLLEEKEKMLEDLRREQQATELLAAKYKAMESKLLIGGRNIMDHTNEQQKMLELKRQEIAEQKRREREMQQEMMLRDEETMELRGTYTSLQQEVEVKTKKLKKLYAKLQAVKAEIQDQHDEYIRVRQDLEEAQNEQTRELKLKYLIIENFIPPEEKNKIMNRLFLDCEEEQWKFQPLVPAGVSSSQMKKRPTSAVGYKRPISQYARVAMAMGSHPRYRAENIMFLELDVSPPAVFEMEFSHDQEQDPRALHMERLMRLDSFLERPSTSKVRKSRSWCQSPQRPPPSTTHASLASASLRPATVADHE
Consider B1, for which the binding result is “binds”.

B2: KIF4A (protein, UniProt O95239 1-1232)
chain: MKEEVKGIPVRVALRCRPLVPKEISEGCQMCLSFVPGEPQVVVGTDKSFTYDFVFDPSTEQEEVFNTAVAPLIKGVFKGYNATVLAYGQTGSGKTYSMGGAYTAEQENEPTVGVIPRVIQLLFKEIDKKSDFEFTLKVSYLEIYNEEILDLLCPSREKAQINIREDPKEGIKIVGLTEKTVLVALDTVSCLEQGNNSRTVASTAMNSQSSRSHAIFTISLEQRKKSDKNSSFRSKLHLVDLAGSERQKKTKAEGDRLKEGININRGLLCLGNVISALGDDKKGGFVPYRDSKLTRLLQDSLGGNSHTLMIACVSPADSNLEETLNTLRYADRARKIKNKPIVNIDPQTAELNHLKQQVQQLQVLLLQAHGGTLPGSITVEPSENLQSLMEKNQSLVEENEKLSRGLSEAAGQTAQMLERIILTEQANEKMNAKLEELRQHAACKLDLQKLVETLEDQELKENVEIICNLQQLITQLSDETVACMAAAIDTAVEQEAQVETSPETSRSSDAFTTQHALRQAQMSKELVELNKALALKEALARKMTQNDSQLQPIQYQYQDNIKELELEVINLQKEKEELVLELQTAKKDANQAKLSERRRKRLQELEGQIADLKKKLNEQSKLLKLKESTERTVSKLNQEIRMMKNQRVQLMRQMKEDAEKFRQWKQKKDKEVIQLKERDRKRQYELLKLERNFQKQSNVLRRKTEEAAAANKRLKDALQKQREVADKRKETQSRGMEGTAARVKNWLGNEIEVMVSTEEAKRHLNDLLEDRKILAQDVAQLKEKKESGENPPPKLRRRTFSLTEVRGQVSESEDSITKQIESLETEMEFRSAQIADLQQKLLDAESEDRPKQRWENIATILEAKCALKYLIGELVSSKIQVSKLESSLKQSKTSCADMQKMLFEERNHFAEIETELQAELVRMEQQHQEKVLYLLSQLQQSQMAEKQLEESVSEKEQQLLSTLKCQDEELEKMREVCEQNQQLLRENEIIKQKLTLLQVASRQKHLPKDTLLSPDSSFEYVPPKPKPSRVKEKFLEQSMDIEDLKYCSEHSVNEHEDGDGDDDEGDDEEWKPTKLVKVSRKNIQGCSCKGWCGNKQCGCRKQKSDCGVDCCCDPTKCRNRQQGKDSLGTVERTQDSEGSFKLEDPTEVTPGLSFFNPVCATPNSKILKEMCDVEQVLSKKTPPAPSPFDLPELKHVATEYQENKAPGKKKKRALASNTSFFSGCSPIEEEAH
In the case of B2, the binding entry is given as “binds”.
